Laboratory results taken from PubChem BioAssay AID1259354 (Paczesny and Yang Labs, IUPUI and University of Michigan, 2018).
About 1,800 (2.3%) of roughly 78,000 compounds were called active. Inconclusive results, whose numbers are uncertain, are shown with a selection of clear calls. No stated cut-off is given here; in the data, active means inhibition above about 30%; inconclusive means mostly about 10% to 28%; inactive means weaker than that.

By UniProt entry, the sequences of proteins in these tests, tags left out. Where a name states a change or a piece, a line headed by the entry shows the natural chain unless it says otherwise.
UniProt Q01638: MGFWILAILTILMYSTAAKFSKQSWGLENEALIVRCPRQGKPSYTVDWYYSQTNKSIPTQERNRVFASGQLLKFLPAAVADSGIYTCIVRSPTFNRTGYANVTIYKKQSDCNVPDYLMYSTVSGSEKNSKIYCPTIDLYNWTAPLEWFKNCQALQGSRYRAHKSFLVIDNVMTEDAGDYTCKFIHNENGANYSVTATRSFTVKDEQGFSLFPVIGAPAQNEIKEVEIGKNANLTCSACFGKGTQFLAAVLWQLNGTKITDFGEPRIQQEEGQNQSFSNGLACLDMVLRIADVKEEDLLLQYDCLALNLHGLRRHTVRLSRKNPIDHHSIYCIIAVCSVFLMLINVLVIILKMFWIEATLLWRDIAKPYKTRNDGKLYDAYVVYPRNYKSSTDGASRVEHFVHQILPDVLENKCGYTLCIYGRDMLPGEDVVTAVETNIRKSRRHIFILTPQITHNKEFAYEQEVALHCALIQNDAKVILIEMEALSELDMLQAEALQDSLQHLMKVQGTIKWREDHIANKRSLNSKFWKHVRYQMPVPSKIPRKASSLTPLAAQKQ

Biological target: Interleukin-1 receptor-like 1 (Homo sapiens) (UniProt Q01638)
Assay: blocks human ST2 binding to IL-33, primary screen, biochemical, AlphaLISA (AID 1259354)
Conditions: AlphaLISA ST2-Fc/biotin-IL-33 interaction, 1 h; at 17 µM, hits give high values

Question: Which inhibition does the source give for `O=C(c1ccc([N+](=O)[O-])cc1)N1CCN(CCO)CC1` here?
Answer: Its inhibition is “inactive”.

Question: For `O=S(=O)(NC(c1ccccc1)c1ccccc1)c1cccc2cccnc12`, which inhibition is on record?
Answer: The inhibition was “inactive”.

Question: With `CC1=NN(C(C#N)c2cccc([N+](=O)[O-])c2)C(C)(C)C1` (centres undefined) as the compound, how does the inhibition read?
Answer: Its inhibition is inconclusive: 11%.

Question: Which inhibition does the source give for `Cn1ccnc1CN1C(=O)CO[C@H]2CN(Cc3ccccc3)C[C@H]21` here?
Answer: Its inhibition is “inactive”.

Question: For `Cc1ccc(S(=O)(=O)C2(C(=O)Nc3ccc(Cl)cc3)CC2)cc1`, which inhibition is on record?
Answer: Its inhibition is “inactive”.

Question: With `O=C(Nc1ccccc1[N+](=O)[O-])C1C2CCCCC21` (centres undefined) as the compound, how does the inhibition read?
Answer: Its inhibition is active: 39%.

Question: `c1ccc(CC2CN(Cc3ccc(Oc4ncccn4)cc3)CCO2)cc1` (centres undefined) was tested. Which inhibition did it give?
Answer: The inhibition was inconclusive: 12%.

Question: For `CCC1CCCCN1C(=O)c1cc2cc3ccc(OC)cc3nc2o1` (centres undefined), which inhibition is on record?
Answer: The inhibition was inconclusive: 19%.

Question: For `CN(Cc1ccncn1)C(=O)c1nn(C)c(=O)c2ccccc12`, which inhibition is on record?
Answer: The inhibition was inconclusive: 11%.

Question: How did the inhibition turn out when `Nc1c2c(nc3ccccc13)CCCC2O` (centres undefined) was run?
Answer: The inhibition was inconclusive: 17%.

Question: For `Cc1cccc(CN2CCCN(CC(=O)NCc3ccc(F)cc3)S2(=O)=O)c1`, which inhibition is on record?
Answer: Its inhibition is inconclusive: 13%.

Question: With `Clc1ccccc1/C=C/C=Nc1ccc(N2CCOCC2)cc1` as the compound, how does the inhibition read?
Answer: Its inhibition is active: 38%.

Question: How did the inhibition turn out when `CN(CCN1CCCCC1=O)c1nc(-c2ccccc2)nc2c1CCNC2` was run?
Answer: The inhibition was inconclusive: 14%.

Question: For `CC(=O)N1c2ccc(N)cc2C(C)(c2ccccc2)CC1(C)C` (centres undefined), which inhibition is on record?
Answer: The inhibition was inconclusive: 15%.

Question: Which inhibition does the source give for `COc1ccc(/C=C2\N=C(c3ccc(Cl)cc3Cl)OC2=O)cc1` here?
Answer: Its inhibition is inconclusive: 20%.

Question: `COc1ccccc1S(=O)(=O)Cc1ccc(C(=O)NC2CCCCCC2)o1` was tested. Which inhibition did it give?
Answer: Its inhibition is inconclusive: 16%.

Question: `Cc1[nH]c2ccccc2c1CCNC(=O)/C(=C/c1ccc2c(c1)OCO2)NC(=O)c1ccccc1` was tested. Which inhibition did it give?
Answer: Its inhibition is inconclusive: 23%.

Question: How did the inhibition turn out when `CN1CCN([C@H]2CN(Cc3cc(C(C)(C)C)ccc3O)C[C@@H]2O)CC1` was run?
Answer: Its inhibition is “inactive”.

Question: For `COc1ccc(Nc2cc(-n3cccn3)ncn2)cc1`, which inhibition is on record?
Answer: The inhibition was inconclusive: 11%.

Question: For `COc1ccc(NS(=O)(=O)c2c(C)cc(C)cc2C)c([N+](=O)[O-])c1`, which inhibition is on record?
Answer: Its inhibition is inconclusive: 27%.

Question: Which inhibition does the source give for `CCCn1c(NC(=O)C2CCCCC2)nc2ccccc21` here?
Answer: Its inhibition is inconclusive: 12%.

Question: `CCCC(C)CN1CCC(n2cc(CN(C)C)nn2)CC1` (centres undefined) was tested. Which inhibition did it give?
Answer: The inhibition was “inactive”.

Question: `C=CCc1cccc2cc(C(=O)Nc3ccc(OCC)cc3)c(=O)oc12` was tested. Which inhibition did it give?
Answer: The inhibition was inconclusive: 12%.

Question: For `CN(C/C=C/c1ccccc1[N+](=O)[O-])Cc1ccccc1`, which inhibition is on record?
Answer: Its inhibition is inconclusive: 16%.

Question: Which inhibition does the source give for `O=C(N[C@H]1CN[C@H](C(=O)N2CC=C(c3ccccc3)CC2)C1)c1ccco1` here?
Answer: Its inhibition is “inactive”.

Question: Which inhibition does the source give for `COc1cc2sc(C)nc2c2ccccc12` here?
Answer: Its inhibition is “inactive”.

Question: For `CC1(C)C(=O)OC(c2ccco2)C2(CCCCC2)C1=O` (centres undefined), which inhibition is on record?
Answer: The inhibition was “inactive”.

Question: With `O=C(c1cccc(N2CCNC2=O)c1)N1CC[C@@H](c2ccc(F)cc2)[C@H](O)C1` as the compound, how does the inhibition read?
Answer: The inhibition was “inactive”.

Question: How did the inhibition turn out when `Cc1cccc(OCC(=O)O/N=C(/N)c2cccnc2)c1C` was run?
Answer: The inhibition was inconclusive: 18%.

Question: `COc1ccc(C(=O)N2C[C@@H]3C[C@H](C2)c2c(NC(=O)Nc4ccccc4)ccc(=O)n2C3)cc1` was tested. Which inhibition did it give?
Answer: The inhibition was inconclusive: 10%.

Question: Which inhibition does the source give for `COc1ccc(-c2n[nH]c(CC(C)C)n2)c(OC)n1` here?
Answer: Its inhibition is “inactive”.

Question: Which inhibition does the source give for `CC(C(=O)N1CCCc2c1c(=O)oc1ccc(O)cc21)N1CCOCC1` (centres undefined) here?
Answer: The inhibition was inconclusive: 11%.

Question: `COc1ccc(C(=O)NC(NCc2ccccc2)C(Cl)(Cl)Cl)cc1` (centres undefined) was tested. Which inhibition did it give?
Answer: The inhibition was “inactive”.

Question: How did the inhibition turn out when `COc1cc2c(cc1CN1CCOC(CN)C1)OCCCO2` (centres undefined) was run?
Answer: Its inhibition is inconclusive: 10%.

Question: `CCN(CC)C(=O)C1CCCN(Cc2ccc(Cl)cc2Cl)C1` (centres undefined) was tested. Which inhibition did it give?
Answer: The inhibition was “inactive”.

Question: With `O=C(Nc1ccccc1[N+](=O)[O-])c1ccc(Cl)c(S(=O)(=O)Nc2ccc(Cl)cc2)c1` as the compound, how does the inhibition read?
Answer: The inhibition was inconclusive: 23%.

Question: With `CCOC(=O)CNC(=O)N1CCCC(C(=O)c2ccc(OC)cc2C)C1` (centres undefined) as the compound, how does the inhibition read?
Answer: Its inhibition is “inactive”.

Question: `CC1CN(CN2C(=O)C(=Nc3ccc(Cl)c(Cl)c3)c3ccccc32)CC(C)O1` (centres undefined) was tested. Which inhibition did it give?
Answer: Its inhibition is inconclusive: 26%.

Question: Which inhibition does the source give for `COc1ccc(N2C(=O)C3CCCN3C2c2ccc(Cl)cc2)cc1Cl` (centres undefined) here?
Answer: Its inhibition is inconclusive: 17%.

Question: How did the inhibition turn out when `COC(=O)c1ccc(CNCc2cccnc2N2CCCC(O)C2)cc1` (centres undefined) was run?
Answer: Its inhibition is “inactive”.

Question: For `CN(Cc1cc(C2CC2)on1)Cc1cc2n(n1)CCNC2`, which inhibition is on record?
Answer: The inhibition was “inactive”.

Question: `O=C(C[C@@H]1O[C@H](CNS(=O)(=O)c2ccccc2)[C@@H](O)[C@H]1O)NCCN1CCOCC1` was tested. Which inhibition did it give?
Answer: Its inhibition is inconclusive: 11%.

Question: For `CN(C)CCNC(=O)C1CCN(c2ccc(-c3cccs3)nn2)CC1`, which inhibition is on record?
Answer: The inhibition was inconclusive: 21%.

Question: How did the inhibition turn out when `COc1cccc(C2CC(=O)C3=C(C2)Nc2ccccc2NC3c2ccccc2F)c1` (centres undefined) was run?
Answer: The inhibition was inconclusive: 17%.

Question: `CCN(CC1CCOCC1)C(=O)CCn1c(C)cc(C)nc1=O` was tested. Which inhibition did it give?
Answer: Its inhibition is inconclusive: 10%.

Question: With `Cc1ccc(C)c(CCNC(=O)CCNC(=O)c2ccccc2F)c1` as the compound, how does the inhibition read?
Answer: Its inhibition is inconclusive: 10%.

Question: Which inhibition does the source give for `Cc1cc(C(F)(F)F)c(C#N)c(SCC(=O)c2ccc(Br)cc2)n1` here?
Answer: Its inhibition is inconclusive: 29%.

Question: For `COc1ccc(Cl)cc1NC(=O)CCC1CCCN(C(=O)c2cccc(N(C)C)c2)C1` (centres undefined), which inhibition is on record?
Answer: The inhibition was “inactive”.

Question: `CCN1CCc2c(sc(NC(=O)c3ccc(C)c(C)c3)c2C(=O)OC)C1` was tested. Which inhibition did it give?
Answer: The inhibition was “inactive”.
